HELM strings list residues between dots; [ac] is acetyl, [am] amide, other brackets name non-standard units.
Assay: general procedure: Boc solid-phase peptide synthesis; 4-methyl benzhydrylamine resin
Conditions: whole synthesis, scale 0.5 mmol

Substance	crude mass	isolated mass
Acetyl-arginyl-glycyl-histidyl-leucyl-valyl-(4-bromo-phenylalanyl)-isoleucyl-glutamine-amide	512 mg	
Acetyl-arginyl-glycyl-histidyl-leucyl-valyl-phenylalanyl-isoleucyl-glutamine-amide	760 mg	396 mg
Acetyl-arginyl-glycyl-histidyl-leucyl-valyl-tyrosyl-isoleucyl-glutamine-amide	592 mg	
Acetyl-tyrosyl-threonyl-lysyl-leucyl-valyl-histidyl-isoleucyl-glutamine-amide	926 mg	298 mg
Acetyl-tyrosyl-threonyl-lysyl-leucyl-valyl-phenylalanyl-glutaminyl-glutamine-amide	334 mg	
Acetyl-tyrosyl-threonyl-lysyl-leucyl-valyl-phenylalanyl-isoleucyl-glutamine-amide	815 mg	122 mg
PEPTIDE1{Y.T.K.[homo-Phe].V.A.I.Q.[am]}$$$$V2.0	619 mg	276 mg
PEPTIDE1{[ac].Y.T.K.L.V.[D-homo-Phe].I.Q.[am]}$$$$V2.0	493 mg	
Tyrosyl-threonyl-lysyl-leucyl-valyl-phenylalanyl-isoleucyl-glutamine-amide	596 mg	375 mg
Tyrosyl-threonyl-lysyl-phenylalanyl-valyl-alanyl-isoleucyl-glutamine-amide	448 mg	309 mg
Tyrosyl-threonyl-lysyl-tyrosyl-valyl-alanyl-isoleucyl-glutamine-amide	642 mg	385 mg
Tyrosyl-threonyl-methionyl-leucyl-valyl-alanyl-phenylalanyl-glutamine-amide	714 mg	83 mg
Tyrosyl-threonyl-methionyl-phenylalanyl-valyl-alanyl-isoleucyl-glutamine-amide	626 mg	107 mg
